Experimental findings from PubChem BioAssay AID2685 (National Center for Advancing Translational Sciences (NCATS), 2010) are described below.

This is one part of the list. These are further read-outs of the screen, such as a control signal, another cell line or another target. No call is given for them. The list favours compounds with an active or inconclusive main result. Potencies come from curve fits of mixed quality, noted in brackets.

As a reminder, the AC50 is the concentration giving half of the maximal activity seen. Low values mean greater potency, high ones weaker potency.

This assay is described as follows: qHTS Assay for Lipid Storage Modulators in Drosophila S3 Cells.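 On cell number change: cells counted by Cell Tracker Red CMTPX staining in the red channel.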 As to conditions: BODIPY lipid droplet fluorescence, 18-24 h; for cell number change: measured here: cell count max response, cells fed with added oleic acid. An outline of the steps:
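Laser-scanning cytometry quantifies lipid droplet accumulation (500–530 nm total intensity; droplet/cell object ratio) in oleic acid-fed (400 uM added) Drosophila S3 cells treated with a concentration series. 20 uM Triacsin C defined 100% inhibition.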
A general note: In qHTS, concentration-response curves come from the screen itself.

The mark [1] stands for this setting: measured here: cell number channel AC50, cells fed with added oleic acid.
The mark [2] stands for this setting: measured here: lipid fluorescence (Fed channel) AC50, cells fed with added oleic acid.

As to `COc1cccc(NC(=O)Nc2cc(C(=O)NC(C)C)ccc2N2CC3CC(C2)c2cccc(=O)n2C3)c1` (stereo not drawn), the cell number change worked out at 22.6%. Under setting [1], the AC50 was 0.058 µM [rising, full curve, poor fit].
`O=C(Nc1ccc(N2CCOCC2)c(Cl)c1)c1ccc(S(=O)(=O)N2CCOCC2)cc1`: the cell number change is -40.5%. For the same compound, under setting [1], the AC50 is 16.4 µM [falling, single point]. For the same compound, the AC50 under setting [2] was 29.1 µM [falling, single point].
Regarding `O=C(O)Cc1cn(Cc2cccc(Cl)c2)c2ccccc12`, the cell number change is -6.91%.
For `O=C(O)c1n[nH]c2c1CC(C1CCCCC1)CC2` (stereo not drawn), the cell number change worked out at 16.4%. Besides, the AC50 under setting [1] was 0.731 µM [falling, single point]. Further, the AC50 under setting [2] was 0.0651 µM [rising, full curve, poor fit].
On to `Cn1c(N)c(-c2ccccc2)c2ccc([N+](=O)[O-])cc2c1=O`, for which the cell number change was 30.6%. Moreover, the AC50 under setting [1] is 11.6 µM [rising, partial curve].
`COc1ccc(CNC(=O)CN(C(=O)c2csnn2)c2ccccc2F)cc1`: the cell number change amounted to 10.1%.
Regarding `Cc1ccc(C(=O)NCc2ccco2)cc1Br`, the cell number change amounted to 3.73%. Besides, the AC50 under setting [2] was 6.51 µM [rising, single point].
`COc1ccc(CN2C(=NC(=O)CCc3ccccc3)SC3CS(=O)(=O)CC32)cc1` (stereo not drawn): the cell number change worked out at 82.3%. Besides, the AC50 under setting [1] is 20.6 µM [rising, partial curve, poor fit].
`CN(C)S(=O)(=O)N1CCc2ccc(NC(=O)c3ccc(C(F)(F)F)cc3)cc2C1`: the cell number change is -12.9%. In addition, the AC50 under setting [2] was 3.66 µM [rising, single point].
On to `OCC[C@@H]1C[C@@H](O)[C@H](O)[C@]2(Cc3ccccc3O2)O1`, for which the cell number change came to 4.19%.
On the same count and under the same terms, under `COc1ccccc1N(CC(O)CN1CCCCC1)S(=O)(=O)c1ccc(C)cc1` (stereo not drawn) stands 1.8%; under `C/C(Cl)=C/Cn1c(N2CCCC2)nc2c1c(=O)[nH]c(=O)n2C`, 6.08%.
In the case of `CCOC(=O)c1c(NC(=O)COc2ccc3ccc(=O)oc3c2)sc(C(=O)N(C)C)c1C`, the cell number change was -0.758%. Also, the AC50 under setting [2] was 1.3 µM [rising, partial curve].
As for `Cc1ccc(C)c(NC(=O)C(=O)NCC2CCCN2S(=O)(=O)c2cccs2)c1` (stereo not drawn), the cell number change is 31.3%. For the same compound, the AC50 under setting [1] is 1.46 µM [rising, partial curve, poor fit].
As to `O=C(c1ccccc1[N+](=O)[O-])N1CCCC(C(=O)N2CCCCCC2)C1` (stereo not drawn), the cell number change was 3.44%. Moreover, under setting [2], the AC50 is 5.8 µM [rising, single point].
With `Cc1ccc2cccc(S(=O)(=O)N3CCCc4ccccc43)c2n1`, the cell number change was -4.14%. For the same compound, the AC50 under setting [1] was 3.66 µM [falling, single point].
Regarding `Cc1ccc(-c2nnn(CC(=O)N(CC(=O)NCc3ccccc3)c3cccc(C)c3C)n2)o1`, the cell number change is 59%. Besides, the AC50 under setting [1] is 9.2 µM [rising, partial curve, poor fit]. The AC50 under setting [2] is 11.6 µM [rising, partial curve].
For the compound `CCCOCC(O)COc1ccccc1C(=O)N1CCOCC1` (stereo not drawn), the cell number change was -12.6%. Further, under setting [2], the AC50 was 0.731 µM [rising, single point].
`CC(C)OC(=O)CC1C(=O)NCCN1C(=S)NC(=O)CCc1ccccc1` (stereo not drawn): the cell number change was -21.8%. The AC50 under setting [2] was 29.1 µM [falling, partial curve].
On to `Cc1cc2c(cc1C)/C(=C\C(N)=O)NC(C)(C)C2`, for which the cell number change was -6.69%.
Take `CCn1ccc(C(=O)Nc2sc3c(c2C(=O)OC)CCC3)n1`: the cell number change is -31.2%. Besides, the AC50 under setting [1] was 1.03 µM [falling, full curve, poor fit]. For the same compound, the AC50 under setting [2] was 6.51 µM [falling, single point].
Take `CC(C)=NN/C(N)=N/C(=S)Nc1ccc(C)cc1`: the cell number change was found to be 18.3%. Also, the AC50 under setting [2] was 11.6 µM [rising, partial curve, poor fit].
Take `COC(=O)c1ccc(Sc2ccc(F)cc2)c(N)c1`: the cell number change turned out to be 1.34%.
Regarding `O=C(COc1cccc2ccccc12)Nc1cc(Cl)ccc1C(=O)O`, the cell number change was found to be 16.8%. For the same compound, under setting [2], the concentration at half-maximal activity (AC50) was 1.64 µM [falling, partial curve].
Take `CCCCOc1cccc(C(=O)NC(=S)Nc2ccc(Cl)c(C(=O)O)c2)c1`: the cell number change is 8.95%.
Same read-out and setting: in the case of `COC(=O)c1ccccc1NC(=O)Nc1ccc(Cl)cn1` it was 121%.
`COc1ccc2c(=O)c(-c3ccccc3C)c(C)oc2c1`: the cell number change was -6.51%. Further, under setting [2], the AC50 was 32.6 µM [falling, single point].
As to `COc1cccc(S(=O)(=O)NCc2ccc3c(c2)OCO3)c1`, the AC50 was 2.91 µM [rising, single point] under setting [1] and 29.1 µM [rising, single point] under setting [2].
Consider `O=C(O)CSCC(=O)Nc1ccccn1`, for which the cell number change stood at 17.7%. Besides, under setting [1], the AC50 was 0.92 µM [falling, full curve].
For `N#Cc1c(NC(=O)CSc2nc(-c3ccccc3)cc(C(F)(F)F)n2)sc2c1CCC2`, the cell number change worked out at 3.87%. Also, under setting [2], the AC50 is 1.84 µM [rising, partial curve, poor fit].
`CCCn1c(CN(C)Cc2ccccc2)nc2c1c(=O)n(C)c(=O)n2C`: the cell number change is -43.4%. The AC50 under setting [1] was 20.6 µM [falling, single point]. In addition, under setting [2], the AC50 was 16.4 µM [falling, single point].
For `NS(=O)(=O)c1ccccc1`, the cell number change is -16.3%. Besides, the AC50 under setting [2] is 0.411 µM [falling, partial curve, poor fit].
`COc1ccccc1CNC(=O)c1ccccc1SCC(=O)NCc1ccco1`: the cell number change is -95.2%. In addition, under setting [1], the AC50 was 29.1 µM [falling, single point].
`CCc1ccc(OCC(=O)Nc2ccc(S(=O)(=O)Nc3cc(C)on3)cc2)c(Br)c1`: the cell number change was 33%. Further, under setting [1], the AC50 is 6.51 µM [rising, partial curve, poor fit]. Also, the AC50 under setting [2] was 5.17 µM [rising, partial curve].
For `COc1cc(OC)cc(C(=O)N2CCC(n3c(C)nc4cc(F)ccc43)CC2)c1`, the cell number change was -7.79%. In addition, the AC50 under setting [2] was 4.61 µM [rising, single point].
Turning to `COc1ccc(-n2nc(C(=O)NCC(=O)Nc3cc(OC)ccc3OC)c3ccccc3c2=O)cc1`, the cell number change is -22.5%.
Turning to `Cc1cc2c(c(=O)n1Cc1ccc3c(c1)OCO3)C(c1cccnc1)C(C#N)=C(N)O2` (stereo not drawn), the cell number change was -1.08%. Besides, the AC50 under setting [2] is 0.146 µM [rising, full curve, poor fit].
Turning to `CC1CCN(C(=O)CCCOc2cc(=O)n(C)c3ccccc23)CC1`, the AC50 runs as follows: under setting [1], 3.26 µM [rising, partial curve]; under setting [2], 2.59 µM [rising, partial curve].
In the case of `CC1(C)c2ccccc2N2CCC(=O)NC21/C=C/c1ccco1` (stereo not drawn), the AC50 under setting [1] was 0.58 µM [rising, single point].
